Here are results for 61 compounds from PubChem BioAssay AID2685 (National Center for Advancing Translational Sciences (NCATS), 2010).

Some of the results follow. The main result of the screen is listed elsewhere. These columns were measured beside it and carry no call. The list favours compounds with an active or inconclusive main result. The note in brackets gives the kind of curve behind each potency; many fits are weak.

The experiment can be described thus: qHTS Assay for Lipid Storage Modulators in Drosophila S3 Cells.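 For cell number change: cells counted by Cell Tracker Red CMTPX staining in the red channel.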 To be noted: BODIPY lipid droplet fluorescence, 18-24 h; for cell number change: measured here: cell count max response, cells fed with added oleic acid. The essentials:
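Drosophila S3 cells got compounds at several concentrations plus oleic acid (400 uM solution). Laser-scanning cytometry with 488 nm excitation read lipid droplets at 500-530 nm and cells at 575-640 nm. Percent activity was relative to 20 uM Triacsin C.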
(Quantitative high-throughput screening tests each substance at several concentrations.)

Setting [1] is: measured here: lipid fluorescence (Fed channel) AC50, cells fed with added oleic acid.
[2] abbreviates: measured here: cell number channel AC50, cells fed with added oleic acid.

A word on the AC50: it is the concentration at which the activity in the assay is half-maximal. A high value points to activity only at high concentration. As to `CCOC(=O)c1sc(NC(=O)CSc2ncn[nH]2)c(C#N)c1C`, the cell number change is -20.1%. Further, the AC50 under setting [1] is 2.91 µM [rising, partial curve].
As for `COC(=O)C1(Cc2cc(-c3cccnc3)no2)CCN(C(=O)OC(C)(C)C)CC1`, the cell number change came out at 12%. Further, under setting [1], the AC50 was 10.3 µM [falling, partial curve, poor fit].
Consider `COc1cc(OC)c(OC)cc1/C=N/Nc1ncnc2c1[nH]c1ccccc12`, for which the cell number change turned out to be 7.83%. Under setting [2], the AC50 was 6.51 µM [rising, single point]. Besides, the AC50 under setting [1] was 4.11 µM [rising, single point].
With `O=C(CN1CCCCC1)Nc1ccc(S(=O)(=O)N2CCCCCC2)cc1`, the cell number change is -8.65%.
On to `Cc1ccc(-n2c(SCC(N)=O)nnc2-c2cccnc2)c(C)c1`, for which the cell number change is 6.85%. The AC50 under setting [1] is 14.6 µM [rising, single point].
As for `CCN1C(=O)/C(=C/c2cccs2)SC1=Nc1ccc(OC)cc1`, the cell number change was -11.7%. Under setting [2], the AC50 was 1.03 µM [rising, partial curve].
As to `CCC(C)Sc1cccc(-c2nc3cc(C)ccn3c2NCc2ccccc2)c1` (configuration not stated), the cell number change is -57%. Also, the AC50 under setting [2] is 10.3 µM [falling, partial curve].
In the case of `O=C(NCCn1cccn1)C1CCC(=O)N(CCc2ccccc2)C1` (configuration not stated), the cell number change was 17.3%.
For `Cc1ccc2sc(N(CCCN(C)C)C(=O)c3nc4ccccc4s3)nc2c1C`, the cell number change is -67%. Moreover, the AC50 under setting [2] was 2.31 µM [falling, partial curve]. Moreover, the AC50 under setting [1] was 5.8 µM [falling, full curve].
Regarding `O=C(O)COc1ccccc1/C=N/NC(=O)c1cc(-c2ccc(F)cc2)nc2ccccc12`, the cell number change was -88.9%. Further, the AC50 under setting [2] is 18.4 µM [falling, single point].
On to `COc1cc(/C=C/C(=O)N(Cc2ccccc2)c2ccccn2)cc(OC)c1OC`, for which the cell number change is 21.2%. For the same compound, the AC50 under setting [1] was 5.17 µM [rising, full curve, poor fit].
For the compound `CC(=O)Nc1ccc(S(=O)(=O)N/N=C/c2ccc(C)o2)cc1`, the cell number change amounted to 27.2%. Under setting [1], the AC50 was 0.58 µM [rising, single point].
As to `O=C(c1n[nH]c2ccccc12)N1CCOCC1`, the cell number change is -23.7%. Also, under setting [2], the AC50 is 0.112 µM [falling, full curve, poor fit].
With `C#Cc1ccc(CN2CCC(Oc3ccc(C(=O)NCc4ccccn4)cc3)CC2)cc1`, the cell number change is -41.6%.
Take `CC(Cc1ccsc1)NC(=O)CCc1nnc(COc2ccccc2)o1` (configuration not stated): the cell number change was -28.6%. Moreover, the AC50 under setting [1] was 0.164 µM [falling, full curve].
Take `COc1ccc(Nc2nc(NC(C)(C)C)nc(N3CCCC3)n2)c(OC)c1`: the AC50 under setting [2] is 6.51 µM [rising, single point] and the AC50 under setting [1] was 2.31 µM [rising, partial curve].
Turning to `Cc1ccc(NC(=O)CN(C)C(=O)c2ccc(Cl)nc2)cc1`, the cell number change was determined as 2.63%. Moreover, the AC50 under setting [1] was 0.398 µM [falling, single point].
Regarding `Cc1cc(C)c(C)c(S(=O)(=O)N2CCN(c3ccc(O)cc3)CC2)c1C`, the cell number change came out at 30.3%. In addition, the AC50 under setting [2] was 20.6 µM [rising, single point]. The AC50 under setting [1] is 23.1 µM [rising, single point].
Regarding `Cc1ccc(-n2nnnc2CNC(=O)c2ccc([N+](=O)[O-])o2)cc1C`, the cell number change was 30.8%. The AC50 under setting [2] was 2.91 µM [rising, full curve]. Moreover, the AC50 under setting [1] was 13 µM [falling, single point].
As to `CC(=O)N(C1=C(O)c2ccccc2C(=O)C1=O)C1CCCCC1`, the cell number change is -3.85%. For the same compound, the half-maximal activity concentration (AC50) under setting [1] is 7.31 µM [falling, single point].
Regarding `CSc1ncccc1C(=O)OCC(=O)NC(C)C`, the cell number change was found to be 37.4%. The AC50 under setting [1] was 29.1 µM [rising, single point].
Turning to `CN(C)S(=O)(=O)c1ccc(Cl)c(NC(=O)CSc2nc3c(cc2C#N)C(=O)CC(C)(C)C3)c1`, the cell number change is -41.8%. In addition, the half-maximal activity concentration (AC50) under setting [2] is 1.03 µM [falling, full curve]. In addition, the AC50 under setting [1] is 1.64 µM [falling, partial curve].
Regarding `COc1ccc(C2/C(=C(/O)c3ccc(C)cc3)C(=O)C(=O)N2c2ccccn2)cc1` (configuration not stated), the cell number change is 23.9%. For the same compound, the AC50 under setting [2] is 0.00651 µM [rising, full curve, poor fit].
On to `O=C(Nc1ccc(Cl)cc1)c1cnc(-c2ccccc2)nc1-c1ccccc1`, for which the AC50 is, setting by setting: under setting [2], 0.259 µM [falling, full curve, poor fit]; under setting [1], 1.64 µM [falling, partial curve, poor fit].
In the case of `CCCC12CN3CCN(CC(C3)/C1=N\NC(=O)Nc1ccccc1)C2`, the cell number change was found to be 4.9%.
For the compound `COc1cc(OC)c(C(=O)NC2CC(C)(C)NC(C)(C)C2)cc1OC`, the cell number change is -46.1%. Besides, the AC50 under setting [2] was 29.1 µM [falling, single point]. In addition, the AC50 under setting [1] is 29.1 µM [falling, single point].
Regarding `Cc1cc(C)cc(C(=O)NCC(=O)OCC(=O)N(C)c2ccccc2)c1`, the AC50 under setting [1] was 6.51 µM [rising, single point].
Take `Cc1ccc(C)c2[nH]c(=O)c(CN(CC3CCCO3)S(=O)(=O)c3ccc4c(c3)OCCO4)cc12` (configuration not stated): the cell number change is 5.5%.
For the compound `COc1ccc(Cl)cc1NC(=O)CN(C1CCCCC1)S(C)(=O)=O`, the cell number change came out at 3.58%. Also, the AC50 under setting [1] is 8.2 µM [rising, partial curve].
In the case of `COc1ccc(/C=N/NC(=O)CNC(=O)c2ccncc2)cc1OC`, the cell number change turned out to be 12.5%. Further, the AC50 under setting [1] was 29.1 µM [falling, single point].
As to `O=C(CN1CCCc2ccccc21)N/N=C/c1ccccc1`, the cell number change stood at 1.34%. Further, the AC50 under setting [1] is 16.4 µM [rising, partial curve].
As for `COc1ccc(NC(=O)C2CCCN(c3nc(C)cc(C)n3)C2)cc1` (configuration not stated), the AC50 under setting [1] is 8.2 µM [rising, partial curve, poor fit].
As to `Cc1nnc(SCC(=O)c2cc(C)n(-c3c(C)n(C)n(-c4ccccc4)c3=O)c2C)s1`, the cell number change was -3.32%. Under setting [2], the AC50 is 0.184 µM [rising, full curve, poor fit].
For the compound `N#CC(CO)(Cc1ccc(OC(F)F)cc1)c1nc2ccccc2[nH]1` (configuration not stated), the cell number change worked out at 4.15%. Moreover, under setting [1], the AC50 is 6.51 µM [rising, single point].
`O=[N+]([O-])c1ccc(OCCN2CCNCC2)cc1`: the cell number change was -30.7%. Moreover, under setting [2], the AC50 was 29.1 µM [falling, single point]. Besides, the AC50 under setting [1] was 23.1 µM [falling, partial curve].
On to `Cc1nc2cc(C)c(C)cc2s1`, for which the cell number change was -5.78%. Also, the AC50 under setting [1] was 0.517 µM [rising, full curve, poor fit].
In the case of `N#Cc1ccc(C2N=C(c3ccccc3)NO2)cc1` (configuration not stated), the cell number change is -11.4%.
Take `COc1ccc(N(C(=O)c2cccnc2)S(=O)(=O)c2cccc([N+](=O)[O-])c2)cc1`: the cell number change was -25.8%.
For `COc1ccc(C(=O)Cn2c(C)nc([N+](=O)[O-])c2Br)cc1`, the cell number change is -8.54%. Further, the AC50 under setting [1] was 1.03 µM [falling, full curve].
Take `CCOc1ccc(NC(=O)c2ccccc2NC(=O)CN(C)CC(=O)Nc2ccc(C)cc2)cc1`: the cell number change was -12.5%. For the same compound, the AC50 under setting [1] is 6.51 µM [falling, single point].
`COc1ccc(OC)c(NC(=O)C2CCN(Cc3cnn(-c4ccccc4)c3-n3cccc3)CC2)c1`: the cell number change was -9.79%. The AC50 under setting [1] was 20.6 µM [rising, partial curve].
For `O=C(COC(=O)c1cccs1)NCCc1ccc(F)cc1`, the cell number change was 12.4%.
On the same count and under the same terms, to `S=c1nc[nH]c2c1cnn2Cc1ccccc1` belongs 3.86%.
In the case of `O=S(=O)(NC1CCCCC1NCc1ccco1)c1ccccc1` (configuration not stated), the cell number change was -24.9%. Further, under setting [1], the AC50 is 11.6 µM [falling, partial curve, poor fit].
As to `Cc1ccc(CNS(=O)(=O)c2cn(C)cn2)cc1`, the cell number change was found to be 14.5%. Under setting [1], the half-maximal activity concentration (AC50) was 0.651 µM [falling, single point].
With `COc1ccc([C@H]2CC(=O)C=C(c3cc(Cl)ccc3C)C2)cc1`, the cell number change was -5.17%. Moreover, the AC50 under setting [2] was 0.00461 µM [falling, full curve, poor fit]. Further, the AC50 under setting [1] is 0.651 µM [falling, partial curve].
`Cc1ccc(Cn2c(S(=O)(=O)O)nc3ccccc32)cc1`: the cell number change is 1.61%. In addition, the AC50 under setting [1] is 0.164 µM [falling, full curve, poor fit].
Consider `Cc1cc(C(=O)CN2C(=O)NC3(CCCc4ccccc43)C2=O)c(C)n1Cc1ccccc1` (configuration not stated), for which the cell number change was -1.53%. Also, the AC50 under setting [1] was 20.6 µM [rising, partial curve].
For `O=C(OCCN1C(=O)c2ccccc2C1=O)C1CCN(S(=O)(=O)c2cccs2)CC1`, the AC50 under setting [2] is 0.116 µM [rising, full curve, poor fit] and the AC50 under setting [1] is 0.116 µM [rising, full curve, poor fit].
As for `O=C(Cc1ccc(NC2=NC3CS(=O)(=O)CC3S2)cc1)Nc1ccc(F)cc1` (configuration not stated), the cell number change was found to be 17.9%.
For the compound `Cc1noc(C)c1C(=O)NCCCc1ccccc1`, the cell number change turned out to be 4.3%. For the same compound, the AC50 under setting [1] was 0.411 µM [falling, full curve, poor fit].
As for `CCOC(=O)c1cc2sc(C)cc2n1CC(=O)N1CCc2ccccc21`, the cell number change is -2.71%. In addition, the AC50 under setting [2] is 0.58 µM [rising, full curve]. The AC50 under setting [1] is 0.58 µM [rising, full curve].
As for `CC(C)N(C(=O)CSc1nc(Cc2ccccc2)nc2ccccc12)C(C)C`, the cell number change is -2.93%. Further, the AC50 under setting [1] is 29.1 µM [falling, single point].
For `COc1ccccc1C(=O)N/C(=C/c1ccco1)C(=O)Nc1ccc(C(=O)O)cc1`, the cell number change was found to be 19.1%. The AC50 under setting [1] is 6.51 µM [rising, single point].
As for `Fc1ccccc1CSc1nncn1NC/C=C/c1ccccc1`, the cell number change stood at 20.4%. Besides, the AC50 under setting [1] was 3.26 µM [rising, single point].
Take `CCC(C)n1nccc1NC(=O)C(C)Cl` (configuration not stated): under setting [2], the AC50 is 0.082 µM [rising, single point].
Regarding `Cc1oc2ccccc2c1CC(=O)NCCCN(C)C`, the cell number change is 8.53%. The concentration at half-maximal activity (AC50) under setting [1] is 29.1 µM [rising, single point].
Turning to `O=C(NC1CC1)c1ccc(-c2ccccc2)cc1`, the cell number change amounted to 1.17%. Besides, the AC50 under setting [1] is 0.731 µM [rising, single point].
Regarding `O=C(/C=C/c1ccccc1)c1ccoc1`, the AC50 under setting [1] is 6.51 µM [falling, single point].
With `Cc1cccc(C)c1NC(=O)CSc1nnc(NC(=O)C2CC2)s1`, the cell number change is -3.81%. In addition, under setting [1], the AC50 is 6.51 µM [falling, partial curve, poor fit].
In the case of `COc1ccccc1C(=O)NC(=O)COc1ccc([N+](=O)[O-])cc1`, the cell number change is -1.39%. In addition, the AC50 under setting [2] was 0.103 µM [falling, full curve, poor fit].
